Test results reported in paper PMC3245254.
No constants are given. Whether binding was seen depends on the method and setting. Binding seen in cells or lysates may run through a third protein. Some entries that bind do so weakly or less than the wild type.

Protein sequences, listed by entry. Tags and fused reporters are not part of them.
UniProt Q86X83: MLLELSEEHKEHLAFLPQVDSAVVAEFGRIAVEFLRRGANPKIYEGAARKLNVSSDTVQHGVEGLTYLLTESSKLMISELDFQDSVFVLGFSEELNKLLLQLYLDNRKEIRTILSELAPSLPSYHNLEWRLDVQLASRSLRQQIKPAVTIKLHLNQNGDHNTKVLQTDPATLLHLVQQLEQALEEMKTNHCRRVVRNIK
UniProt Q8N668: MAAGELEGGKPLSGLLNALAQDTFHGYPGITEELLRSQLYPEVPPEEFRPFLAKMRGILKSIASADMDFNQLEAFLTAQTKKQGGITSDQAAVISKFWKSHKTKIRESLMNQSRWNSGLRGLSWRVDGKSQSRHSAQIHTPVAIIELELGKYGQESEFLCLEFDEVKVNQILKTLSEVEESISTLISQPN
UniProt Q9NX08: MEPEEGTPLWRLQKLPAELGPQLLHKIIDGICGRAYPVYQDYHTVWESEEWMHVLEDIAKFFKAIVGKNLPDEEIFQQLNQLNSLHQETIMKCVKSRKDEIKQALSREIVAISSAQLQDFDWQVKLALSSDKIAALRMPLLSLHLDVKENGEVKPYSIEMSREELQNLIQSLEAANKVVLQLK
UniProt Q9Y6G5: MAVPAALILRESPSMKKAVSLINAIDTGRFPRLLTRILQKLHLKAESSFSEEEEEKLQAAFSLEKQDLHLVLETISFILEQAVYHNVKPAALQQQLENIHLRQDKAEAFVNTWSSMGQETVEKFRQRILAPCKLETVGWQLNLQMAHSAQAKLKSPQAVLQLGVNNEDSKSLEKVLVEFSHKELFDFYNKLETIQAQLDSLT
UniProt P35670: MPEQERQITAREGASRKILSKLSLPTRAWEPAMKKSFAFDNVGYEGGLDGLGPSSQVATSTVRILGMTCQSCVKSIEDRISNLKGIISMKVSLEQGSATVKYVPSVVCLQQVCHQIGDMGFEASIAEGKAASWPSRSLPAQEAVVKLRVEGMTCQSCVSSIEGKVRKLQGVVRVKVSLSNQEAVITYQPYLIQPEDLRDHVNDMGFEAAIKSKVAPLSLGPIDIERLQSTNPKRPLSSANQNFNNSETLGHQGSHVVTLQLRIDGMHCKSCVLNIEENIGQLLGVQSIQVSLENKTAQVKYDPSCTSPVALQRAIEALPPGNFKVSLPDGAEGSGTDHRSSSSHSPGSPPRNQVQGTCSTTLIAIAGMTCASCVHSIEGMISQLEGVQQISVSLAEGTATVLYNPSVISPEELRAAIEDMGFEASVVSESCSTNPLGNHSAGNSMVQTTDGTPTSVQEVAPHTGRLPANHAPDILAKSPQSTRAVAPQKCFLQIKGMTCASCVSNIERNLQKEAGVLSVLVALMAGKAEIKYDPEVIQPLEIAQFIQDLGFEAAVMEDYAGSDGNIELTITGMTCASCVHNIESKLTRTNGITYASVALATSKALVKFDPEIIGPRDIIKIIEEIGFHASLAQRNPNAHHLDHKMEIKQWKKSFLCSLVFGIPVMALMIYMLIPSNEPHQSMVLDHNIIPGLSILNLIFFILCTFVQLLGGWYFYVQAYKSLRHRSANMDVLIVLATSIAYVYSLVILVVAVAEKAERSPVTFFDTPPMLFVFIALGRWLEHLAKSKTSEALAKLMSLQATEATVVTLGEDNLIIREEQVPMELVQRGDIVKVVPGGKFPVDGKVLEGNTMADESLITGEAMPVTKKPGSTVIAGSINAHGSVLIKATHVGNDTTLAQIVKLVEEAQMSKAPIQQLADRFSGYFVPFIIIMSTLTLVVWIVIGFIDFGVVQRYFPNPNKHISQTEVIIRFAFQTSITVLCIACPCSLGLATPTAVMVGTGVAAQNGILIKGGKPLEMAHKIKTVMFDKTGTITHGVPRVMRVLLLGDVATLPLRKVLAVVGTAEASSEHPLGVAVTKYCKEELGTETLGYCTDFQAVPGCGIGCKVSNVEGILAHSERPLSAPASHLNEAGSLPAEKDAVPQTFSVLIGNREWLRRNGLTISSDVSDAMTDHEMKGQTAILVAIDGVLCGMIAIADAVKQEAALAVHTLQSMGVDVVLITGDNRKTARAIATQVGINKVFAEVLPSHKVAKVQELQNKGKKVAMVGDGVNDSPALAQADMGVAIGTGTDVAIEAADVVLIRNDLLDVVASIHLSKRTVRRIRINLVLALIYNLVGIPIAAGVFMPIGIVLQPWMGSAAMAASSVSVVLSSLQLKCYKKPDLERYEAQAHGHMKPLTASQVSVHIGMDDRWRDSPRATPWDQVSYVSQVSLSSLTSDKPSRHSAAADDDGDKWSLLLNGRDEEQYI

Key:
Experiment in all cases: pull-down; Glutathione-sepharose (GSH) precipitation of lysates of HEK293T cells co-transfected with GST-COMMD fusion and ATP7B-Flag; precipitates washed, SDS-PAGE, immunoblot; also in HEK293T cells with stable knockdown of COMMD1 (shCOMMD1) or empty shRNA vector (shControl)
[1] = target: COMMD2 as GST fusion protein (UniProt Q86X83)
COMMD1 fused to GST = COMMD1 fused to GST (UniProt Q8N668)
[2] = target: COMMD8 as GST fusion protein (UniProt Q9NX08)
[3] = target: COMMD10 as GST fusion protein (UniProt Q9Y6G5)

Measured: binding

ATP7B-Flag (from UniProt P35670 1-1465)
binds: all assays above
